According to PubChem BioAssay AID720504 (National Center for Advancing Translational Sciences (NCATS), 2013):
Screen size: about 360,000 compounds; about 10,000 (2.8%) were called active. The inconclusive results got no clear call from the source; some entries with a clear call stand among them for comparison. The call rests on the fitted dose curve; in most records, active means well fitted inhibition curve with a large enough effect; inconclusive means small, poorly fitted or top-dose-only effect; inactive means flat fitted curve, though single readings scatter. A potency beside an inconclusive call is a rough fit, not a confirmed value.
Further: nearly all actives have a fitted effect of over 65% in size.
On the % scale 0 is the no-effect control and ±100 the full control effect; potency means the concentration at half of the fitted maximal effect.
Wherever max response, negative = inhibition is given: series mostly up to about 57 µM.

By UniProt entry, the sequences of proteins in these tests, tags left out.
UniProt P53350, whole entry, looked up: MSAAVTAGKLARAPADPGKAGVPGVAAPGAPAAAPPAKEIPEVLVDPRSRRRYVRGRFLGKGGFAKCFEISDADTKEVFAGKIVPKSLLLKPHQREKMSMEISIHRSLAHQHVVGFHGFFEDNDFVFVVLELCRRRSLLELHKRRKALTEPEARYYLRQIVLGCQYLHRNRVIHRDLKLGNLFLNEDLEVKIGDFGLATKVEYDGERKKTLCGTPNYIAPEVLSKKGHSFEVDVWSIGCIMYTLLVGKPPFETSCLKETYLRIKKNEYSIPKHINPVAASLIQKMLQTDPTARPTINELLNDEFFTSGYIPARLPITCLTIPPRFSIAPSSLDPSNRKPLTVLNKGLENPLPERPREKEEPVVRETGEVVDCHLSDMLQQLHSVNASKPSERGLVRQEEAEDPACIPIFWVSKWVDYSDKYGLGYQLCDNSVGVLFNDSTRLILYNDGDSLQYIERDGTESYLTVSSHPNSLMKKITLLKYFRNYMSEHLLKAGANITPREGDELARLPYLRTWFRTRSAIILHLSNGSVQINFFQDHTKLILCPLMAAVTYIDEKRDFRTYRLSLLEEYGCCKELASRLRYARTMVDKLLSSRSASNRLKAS

Each molecule was assayed against Serine/threonine-protein kinase PLK1 (Homo sapiens) (UniProt P53350) (assay: qHTS for Inhibitors of PLK1-PDB (polo-like kinase 1 - polo-box domain): Primary Screen). Conditions: Plk1 PBD binding of FITC phosphopeptide, fluorescence polarization.
In the case of `N#C/C(=C\c1ccc(-c2ccc([N+](=O)[O-])cc2)o1)C(=O)Nc1nc(-c2cccs2)cs1`, the max response, negative = inhibition is reported as inactive: -14.5%.
`Cc1nn(Cc2ccccc2)c2c1C(c1cccnc1)C(C#N)=C(N)O2` (stereo unspecified) was tested, and the Potency was inconclusive: 21.2 µM [inhibitor, partial curve].
For `Cc1ccc(NC(=O)CSc2nnc(-c3ccccn3)n2N)cc1F`, the max response, negative = inhibition was inactive: 4.75%.
In the case of `O=C(COc1ccc(Br)cc1F)NC1CC1`, the max response, negative = inhibition is reported as inactive: 1.47%.
`N#Cc1ccc(C(=O)Nc2nnc(-c3cccs3)o2)cc1` was tested, and the Potency was active: 26.7 µM.
For `COc1cccc(-c2[nH]nc3c2C(c2ccc(C)o2)C(C#N)=C(N)O3)c1` (stereo unspecified), the Potency was inconclusive: 33.6 µM [inhibitor, partial curve].
With `COCCCNS(=O)(=O)c1ccc2c(c1)CCN2C(C)=O` the Potency was inconclusive: 21.2 µM [inhibitor, partial curve].
For `COc1cccc(-c2nnc(-c3ccco3)o2)c1`, the Potency was active: 29.9 µM.
`Oc1ccc2ccccc2c1C=NNc1ccccn1` was tested, and the max response, negative = inhibition was inconclusive: -33.2% [inhibitor].
With `COc1cc(/C=C2\C(=N)N3N=CSC3=NC2=O)cc(Br)c1OC(=O)c1ccco1` the Potency was inconclusive: 21.2 µM [inhibitor, partial curve].
With `Oc1c(C(c2ccc(Cl)cc2)N2CCCC2)cc(Cl)c2cccnc12` (stereo unspecified) the Potency was inconclusive: 11.9 µM [inhibitor, partial curve].
In the case of `Cc1sc(N)nc1-c1ccc2c(c1)OCCO2`, the Potency is reported as inconclusive: 26.7 µM [inhibitor, partial curve].
With `Cc1ccccc1[C@@]1(C)ON(c2ccccc2C(F)(F)F)C1=O` the Potency was inconclusive: 23.8 µM [inhibitor, partial curve].
`C=C(C)[C@@H]1CCC2(C(=O)O)CC[C@]3(C)[C@H](CC[C@@H]4[C@@]5(C)CCC(=O)C(C)(C)[C@@H]5CC[C@]43C)[C@@H]12` (stereo partly specified) was tested, and the Potency was active: 13.4 µM.
`CC1(c2ccccc2Cl)NC(=O)N(CC(=O)Nc2cccnc2Cl)C1=O` (stereo unspecified) was tested, and the max response, negative = inhibition was inactive: -4.12%.
For `COc1cccc(NC(=O)C2C3C=CC(O3)C2C(=O)O)c1` (stereo unspecified), the max response, negative = inhibition was inactive: 8.81%.
For `CN(C)c1ccc(/C=N/Nc2ccc(-n3ccnc3)nn2)cc1`, the max response, negative = inhibition was inactive: -14.5%.
`Nc1nc2c(c(=O)[nH]1)C(c1cccc3ccccc13)C1=C(N2)c2ccccc2C1=O` (stereo unspecified) was tested, and the max response, negative = inhibition was inconclusive: -33.3% [inhibitor].
`C=CCn1c(O)c(N=Nc2ccccc2)c2ccccc21` was tested, and the Potency was inconclusive: 37.7 µM [inhibitor, single point].
For `CC1CCC(NC(=O)CCS(=O)(=O)c2ccc3c(c2)NC(=O)CO3)CC1` (stereo unspecified), the Potency was active: 16.8 µM.
For `O=C(CSc1ccc(Cl)cc1)Nc1ncccn1`, the Potency was inconclusive: 26.7 µM [inhibitor, partial curve].
